Source: PubChem BioAssay AID1439 (NMMLSC, 2008)
Hit rate of the full screen: of about 220,000 compounds, about 770 (0.35%) were called active. Inconclusive results, whose numbers are uncertain, are shown with a selection of clear calls. Rule as the data show it: active = binding response below about 49% or above about 150%; inconclusive = no clear call, values can overlap the other calls; inactive = in between.

Chains of the proteins cited; added tags and fusions are not shown.
UniProt P09471, whole entry, looked up: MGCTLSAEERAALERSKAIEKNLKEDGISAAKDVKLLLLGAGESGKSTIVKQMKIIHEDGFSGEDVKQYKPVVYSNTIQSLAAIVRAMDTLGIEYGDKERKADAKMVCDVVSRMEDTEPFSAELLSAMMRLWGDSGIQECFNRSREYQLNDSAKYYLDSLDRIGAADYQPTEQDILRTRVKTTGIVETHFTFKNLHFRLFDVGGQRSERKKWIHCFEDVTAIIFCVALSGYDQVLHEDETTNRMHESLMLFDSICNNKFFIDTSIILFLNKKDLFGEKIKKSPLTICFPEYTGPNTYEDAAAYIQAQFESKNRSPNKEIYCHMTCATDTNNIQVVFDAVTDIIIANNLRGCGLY

Target: Guanine nucleotide-binding protein G(o) subunit alpha (Homo sapiens) (UniProt P09471)
Experiment: RGS7-Galphao binding modulators, primary screen, biochemical, multiplexed bead flow cytometry (AID 1439);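 also: fluorescent Galphao held in activated GDP-AlF4 state binding bead-coupled RGS7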
Details: at 10 µM, actives lie on both sides

Structure (SMILES)	binding response (% of control)
C#CC(CC)(CC)NC(=O)c1ccc(Br)s1	inconclusive: 96.7%
Cc1cc(C)c(S(=O)(=O)n2ccc3ccccc32)c(C)c1	inactive: 107%
Cc1ccc(NC(=S)Nc2ccccn2)c(C)c1	inconclusive: 122%
N#CN=C(N)c1ccccc1	inconclusive: 88.9%
C=CCN1C2CCCC1CC(NC(=S)Nc1ccc(Cl)cc1)C2 (stereo unspecified)	inactive: 101%
Cc1cc(C)n(CCC(=O)N/N=C/c2c(O)ccc3ccccc23)n1	inconclusive: 89.9%
CC(NC(=S)Nc1ccc(Cl)cc1)C(c1ccccc1)N1CCOCC1 (stereo unspecified)	inactive: 99.7%
O=C(CCC(=O)N1CCN(c2ccc(O)cc2)CC1)c1ccc(Br)cc1	inconclusive: 106%
CCn1c(=O)c(C(=O)Nc2nc3ccccc3[nH]2)c(O)c2ccccc21	inactive: 106%
COc1ccc(-c2c(C)[nH]n3c(=O)c(Cc4ccccc4)c(C)nc23)cc1OC	inconclusive: 99.8%
COc1ccc(/C=C/C(=O)NC(=S)NNC(=O)c2cccs2)cc1OC	inconclusive: 127%
Cc1cccc(OCC(=O)Nc2ccc3c(c2)nc(CN2CCCCC2)n3C)c1	inconclusive: 87.2%
Cc1cc(C)c(-c2cc(NC(=O)CSc3n[nH]c(N)n3)n(-c3ccccc3)n2)cc1C	active: -15.8%
COCCCNC(=O)CN1C(=O)/C(=C/c2ccccc2)Sc2ccccc21	inconclusive: 81.8%
CCN(c1ccccc1)S(=O)(=O)c1ccc(Cl)c(NC(=O)CN2C(=O)NC3(CCCC3)C2=O)c1	inconclusive: 130%
O=C(N/N=C1\CCc2ccccc21)c1ccc(O)cc1	inconclusive: 141%
O=C(N/N=C\c1ccc[nH]1)C1COc2ccccc2O1 (stereo unspecified)	inconclusive: 106%
CN1C(=O)C(O)(CC(=O)/C=C/c2ccco2)c2cc(Br)ccc21 (stereo unspecified)	inactive: 95.7%
CCN(CC)C(=O)NC1CCCCCCC1	inconclusive: 111%
O=C(COC(=O)c1ccc(Cl)nc1)Nc1ncc(Cl)cc1Cl	inconclusive: 97.8%
CN(Cc1cc(=O)[nH]c2ccccc12)C(=O)c1ccccc1	inactive: 93.8%
CCOc1cc(/C=N/N=C2/NC(=O)C(CC(=O)O)S2)ccc1OCc1ccc(Cl)cc1 (stereo unspecified)	inconclusive: 98.9%
COCC(=O)N/N=C(\C)CC(=O)NCc1ccco1	inactive: 103%

Structure (SMILES)	binding response (% of control)
COc1ccc(OC)c(NC(=O)Nc2nnc(N3CCC(C)CC3)s2)c1	active: 42.7%
Cc1ccc(C(Sc2ccccc2)C(Cn2cncn2)C(=O)c2ccccc2)cc1 (stereo unspecified)	inactive: 96.9%
O=C(COC(=O)c1cccc(S(=O)(=O)N2CCc3ccccc3C2)c1)NCc1ccco1	inactive: 89%
COc1ccccc1N1CCN(C(=O)CSc2ncnc3c2cnn3-c2ccc(C)c(C)c2)CC1	inconclusive: 119%
CCOc1ccc(NC(=O)CC2C(=O)N(c3ccccc3)C(=O)N2CCOC)cc1 (stereo unspecified)	inconclusive: 97.5%
CCN(CC)C(=O)CC(c1ccc(OC)cc1)c1c(OC)cc(OC)c2ccc(=O)oc12 (stereo unspecified)	inconclusive: 76%
CCOc1ccc(NC(=O)c2cc3ccccc3cc2O)cc1	inconclusive: 93.4%
CCc1cc(=O)oc2c(C)c(OCC(=O)N3CCCc4ccccc43)ccc12	inactive: 118%
Cc1onc(-c2c(F)cccc2Cl)c1C(=O)OCC(=O)NC1CC1	inactive: 106%
Cc1cccc(OCC(=O)N2CCN(c3nnc(-c4ccccc4)c4ccccc34)CC2)c1	inconclusive: -90.3%
CCOc1ccc(NC(=O)C(=O)N/N=C/c2cccnc2)cc1	inconclusive: 104%
Cc1nccc(-c2cccc(NC(=O)c3ccccc3Cl)c2)n1	inconclusive: 63%
CCOc1ccc(-c2nc(N)ncc2Oc2ccc(OC)cc2)c(O)c1	inconclusive: 174%
O=[N+]([O-])c1ccc(-c2nn(-c3ccccc3)cc2/C=N/n2c(-c3ccncc3)n[nH]c2=S)cc1	inconclusive: 95.7%
COc1ccc(NS(=O)(=O)c2ccc3nc(COc4ccc(Cl)c(C)c4)[nH]c3c2)cc1	inactive: 102%
CCOC(=O)Cc1csc2nc(-c3ccccc3)nn12	inconclusive: 87%
CC(C)n1cnc2c(Nc3cccc(Cl)c3)nc(NCCCO)nc21	inconclusive: 108%
O=C1C=C(NNC(=O)c2ccncc2)CC(c2ccccc2)C1 (stereo unspecified)	inconclusive: 97.1%
COc1ccc(Cn2c(=O)[nH]c3cc(OC)c(OC)cc3c2=O)cc1	inconclusive: 72.8%
COc1ccc(C(=O)N/N=C(\C)CC(=O)Nc2cccc(C(F)(F)F)c2)cc1	inconclusive: 298%
O=C(C1CCCN(Cc2ccccc2F)C1)N1CCc2ccccc2C1 (stereo unspecified)	inconclusive: 173%
COC(=O)c1noc(C)c1-c1ccnn1C(=O)c1ccc(C)cc1	inconclusive: 119%
OC(COc1cccc2ccccc12)CN1CCN(c2ccccc2)CC1 (stereo unspecified)	inconclusive: 102%

Structure (SMILES)	binding response (% of control)
O=C(O)CC1(CC(=O)NCc2ccccn2)CCCCC1	inconclusive: 106%
CC1Oc2ccccc2N(CC(=O)NCC2CCCO2)C1=O (stereo unspecified)	inactive: 108%
CC(C)CCc1noc(CN(C)CCC2CCOCC2)n1	inconclusive: 121%
COc1ccc(-c2cc(-c3ccccc3)nc(=O)[nH]2)cc1	inconclusive: 95.6%
NC(=O)C1CCN(C(=O)c2cccc(S(=O)(=O)N3CCc4ccccc4C3)c2)CC1	inconclusive: 97%
O=C(NNS(=O)(=O)c1ccccc1)c1cccnc1	inconclusive: 106%
COc1ccc(NC(=O)Cn2nnc(-c3ccc(CN4CCOCC4)cc3)n2)c(OC)c1	inactive: 129%
CCCn1nc(C(=O)N2CCCc3ccccc32)c2ccccc2c1=O	inconclusive: 98.7%
O=C1c2cc([N+](=O)[O-])ccc2-c2ncccc21	inconclusive: -117%
C/C(=N\Nc1ccc(C(=O)c2c(C)cc3ccccn23)cc1[N+](=O)[O-])c1ccc(O)cc1	inconclusive: 98%
CC(=O)C1=C(O)C(=O)N(Cc2cccnc2)C1c1ccc(Cl)cc1 (stereo unspecified)	inactive: 102%
CC(C)CCNC(=O)c1onc(CSc2ccncc2)c1C(=O)NCCC(C)C	inconclusive: 95.1%
COc1cccc(N2CCN(Cc3nnnn3C3CCCCC3)CC2)c1	inactive: 107%
Nc1ccc(-c2nc3c(Cl)cc(N)cc3[nH]2)cc1	active: 26.5%
O=C1CC(c2ccccc2)=Nc2ccccc2N1	inactive: 100%
Cc1ccc(CN2CCN(/N=C/c3ccc(N(C)C)cc3)CC2)cc1	inconclusive: 102%
Cc1cc(C)c(C(=O)CSc2nnc(C)s2)c(C)c1	inconclusive: 111%
CCOC(=O)c1c(CNc2ccncc2)n(C)c2cc(Br)c(O)cc12	inconclusive: 110%
COc1ccc(/C=C/C(=O)NCCc2nc3ccccc3[nH]2)cc1	inconclusive: 94.2%
O=C(NC(=S)Nc1cc(S(=O)(=O)N2CCOCC2)ccc1N1CCOCC1)c1ccco1	inconclusive: 98.2%
C/C(=N/NS(=O)(=O)c1ccc(C)cc1)[C@H]1C[C@@H]1c1ccccc1	inconclusive: 115%
Brc1cc(Cc2nnc(-c3ccccc3)o2)c(Br)s1	inconclusive: 32.2%
COc1ccc(NC(=S)NCCc2ccc(F)cc2)c(OC)c1	inactive: 91.7%

Shown with bars between the fields: part of the list above
Structure (SMILES) | binding response (% of control)
O=C(O)CC1(CC(=O)NCc2ccccn2)CCCCC1 | inconclusive: 106%
CC1Oc2ccccc2N(CC(=O)NCC2CCCO2)C1=O (stereo unspecified) | inactive: 108%
CC(C)CCc1noc(CN(C)CCC2CCOCC2)n1 | inconclusive: 121%
COc1ccc(-c2cc(-c3ccccc3)nc(=O)[nH]2)cc1 | inconclusive: 95.6%
NC(=O)C1CCN(C(=O)c2cccc(S(=O)(=O)N3CCc4ccccc4C3)c2)CC1 | inconclusive: 97%
O=C(NNS(=O)(=O)c1ccccc1)c1cccnc1 | inconclusive: 106%
COc1ccc(NC(=O)Cn2nnc(-c3ccc(CN4CCOCC4)cc3)n2)c(OC)c1 | inactive: 129%
CCCn1nc(C(=O)N2CCCc3ccccc32)c2ccccc2c1=O | inconclusive: 98.7%
O=C1c2cc([N+](=O)[O-])ccc2-c2ncccc21 | inconclusive: -117%
C/C(=N\Nc1ccc(C(=O)c2c(C)cc3ccccn23)cc1[N+](=O)[O-])c1ccc(O)cc1 | inconclusive: 98%
CC(=O)C1=C(O)C(=O)N(Cc2cccnc2)C1c1ccc(Cl)cc1 (stereo unspecified) | inactive: 102%
COc1cccc(N2CCN(Cc3nnnn3C3CCCCC3)CC2)c1 | inactive: 107%
O=C1CC(c2ccccc2)=Nc2ccccc2N1 | inactive: 100%
Cc1ccc(CN2CCN(/N=C/c3ccc(N(C)C)cc3)CC2)cc1 | inconclusive: 102%
CCOC(=O)c1c(CNc2ccncc2)n(C)c2cc(Br)c(O)cc12 | inconclusive: 110%
COc1ccc(/C=C/C(=O)NCCc2nc3ccccc3[nH]2)cc1 | inconclusive: 94.2%
O=C(NC(=S)Nc1cc(S(=O)(=O)N2CCOCC2)ccc1N1CCOCC1)c1ccco1 | inconclusive: 98.2%
Brc1cc(Cc2nnc(-c3ccccc3)o2)c(Br)s1 | inconclusive: 32.2%
COc1ccc(NC(=S)NCCc2ccc(F)cc2)c(OC)c1 | inactive: 91.7%

Additional entries:

Structure (SMILES)	binding response (% of control)
CCOc1ccc(NCc2nnc(SCC(=O)Nc3nc(-c4ccccc4)cs3)n2-c2ccccc2)cc1	inactive: 106%
O=S(=O)(Cc1ccc(Cl)cc1)C1CCCCC1O (stereo unspecified)	inconclusive: 61.6%
O=C(Nc1ccc(F)cc1)c1ccc(S(=O)(=O)N2CCOCC2)o1	inconclusive: 43.4%
O=C(O)CC(CC(=O)Nc1ccccc1C(=O)O)c1ccccc1 (stereo unspecified)	inconclusive: 91%
COc1ccc(/C=C/C(=O)Nc2cc(S(=O)(=O)N3CCOCC3)ccc2N2CCCC2)cc1OC	inconclusive: 100%
C(=N\Nc1nncn1/N=C/c1ccco1)/c1ccco1	inconclusive: 104%
CCCCn1c(CCC(=O)O)nc2cc(S(=O)(=O)N(CC)CC)ccc21	inconclusive: 130%
O=C(c1cc2cc([N+](=O)[O-])ccc2oc1=O)N1CCN(C2CCCCC2)CC1	inconclusive: 92.2%
COc1ccc(C(C)(C)C)cc1NC(=O)Cn1cnnn1	inconclusive: 67.7%
CCOc1ccc(/C=N/NC(=O)CSc2ccccn2)cc1O	inconclusive: 135%
COc1cccc(CN2CCC(C(=O)N3CCC(C)CC3)CC2)c1	inactive: 95.3%
N#Cc1ccc(Cl)cc1NC(=O)COC(=O)[C@H](CCC(N)=O)NC(=O)c1ccc(F)cc1	inactive: 100%
O=C(O)c1ccccc1N=Cc1c(O)n(-c2nccs2)c(=O)c2ccccc12	inconclusive: 140%
Cc1ccc(F)cc1NC(=O)N1CCN(c2ccnc3cc(Cl)ccc23)CC1	inconclusive: 84.2%
COc1ccccc1N(C)S(=O)(=O)c1ccc(C(=O)Nc2nc(C)cs2)cc1	inactive: 105%
Clc1ccc2nc(CSCc3ccccc3)cn2c1	inconclusive: 93.4%
Cc1oc(-c2ccc(Cl)cc2)cc1C(=O)NC1CCN(Cc2ccccc2)CC1	inconclusive: 72.5%
O=C(Nc1ccc(F)cc1)NC1CCN(Cc2ccccc2)CC1	inconclusive: 105%
N#CCCn1cc(/C=N/N=C2\NC(=O)C(CC(=O)O)S2)c(-c2ccc(F)cc2)n1 (stereo unspecified)	inconclusive: 79.5%
O=C(c1ccccc1)c1ccc(COC(=O)c2cnccn2)cc1	inconclusive: 130%
CCn1c(=NC(=O)c2cccc(N3C(=O)CCC3=O)c2)sc2c(C)ccc(OC)c21	inconclusive: 341%
NS(=O)(=O)c1ccc(N/N=C/c2ccc(O)c(O)c2O)c([N+](=O)[O-])c1	inconclusive: 235%
